Drawing on paper PMC9354775, this text covers binding for four molecules.

By UniProt entry, the sequences of proteins in these tests, tags left out.
UniProt Q6WWW4: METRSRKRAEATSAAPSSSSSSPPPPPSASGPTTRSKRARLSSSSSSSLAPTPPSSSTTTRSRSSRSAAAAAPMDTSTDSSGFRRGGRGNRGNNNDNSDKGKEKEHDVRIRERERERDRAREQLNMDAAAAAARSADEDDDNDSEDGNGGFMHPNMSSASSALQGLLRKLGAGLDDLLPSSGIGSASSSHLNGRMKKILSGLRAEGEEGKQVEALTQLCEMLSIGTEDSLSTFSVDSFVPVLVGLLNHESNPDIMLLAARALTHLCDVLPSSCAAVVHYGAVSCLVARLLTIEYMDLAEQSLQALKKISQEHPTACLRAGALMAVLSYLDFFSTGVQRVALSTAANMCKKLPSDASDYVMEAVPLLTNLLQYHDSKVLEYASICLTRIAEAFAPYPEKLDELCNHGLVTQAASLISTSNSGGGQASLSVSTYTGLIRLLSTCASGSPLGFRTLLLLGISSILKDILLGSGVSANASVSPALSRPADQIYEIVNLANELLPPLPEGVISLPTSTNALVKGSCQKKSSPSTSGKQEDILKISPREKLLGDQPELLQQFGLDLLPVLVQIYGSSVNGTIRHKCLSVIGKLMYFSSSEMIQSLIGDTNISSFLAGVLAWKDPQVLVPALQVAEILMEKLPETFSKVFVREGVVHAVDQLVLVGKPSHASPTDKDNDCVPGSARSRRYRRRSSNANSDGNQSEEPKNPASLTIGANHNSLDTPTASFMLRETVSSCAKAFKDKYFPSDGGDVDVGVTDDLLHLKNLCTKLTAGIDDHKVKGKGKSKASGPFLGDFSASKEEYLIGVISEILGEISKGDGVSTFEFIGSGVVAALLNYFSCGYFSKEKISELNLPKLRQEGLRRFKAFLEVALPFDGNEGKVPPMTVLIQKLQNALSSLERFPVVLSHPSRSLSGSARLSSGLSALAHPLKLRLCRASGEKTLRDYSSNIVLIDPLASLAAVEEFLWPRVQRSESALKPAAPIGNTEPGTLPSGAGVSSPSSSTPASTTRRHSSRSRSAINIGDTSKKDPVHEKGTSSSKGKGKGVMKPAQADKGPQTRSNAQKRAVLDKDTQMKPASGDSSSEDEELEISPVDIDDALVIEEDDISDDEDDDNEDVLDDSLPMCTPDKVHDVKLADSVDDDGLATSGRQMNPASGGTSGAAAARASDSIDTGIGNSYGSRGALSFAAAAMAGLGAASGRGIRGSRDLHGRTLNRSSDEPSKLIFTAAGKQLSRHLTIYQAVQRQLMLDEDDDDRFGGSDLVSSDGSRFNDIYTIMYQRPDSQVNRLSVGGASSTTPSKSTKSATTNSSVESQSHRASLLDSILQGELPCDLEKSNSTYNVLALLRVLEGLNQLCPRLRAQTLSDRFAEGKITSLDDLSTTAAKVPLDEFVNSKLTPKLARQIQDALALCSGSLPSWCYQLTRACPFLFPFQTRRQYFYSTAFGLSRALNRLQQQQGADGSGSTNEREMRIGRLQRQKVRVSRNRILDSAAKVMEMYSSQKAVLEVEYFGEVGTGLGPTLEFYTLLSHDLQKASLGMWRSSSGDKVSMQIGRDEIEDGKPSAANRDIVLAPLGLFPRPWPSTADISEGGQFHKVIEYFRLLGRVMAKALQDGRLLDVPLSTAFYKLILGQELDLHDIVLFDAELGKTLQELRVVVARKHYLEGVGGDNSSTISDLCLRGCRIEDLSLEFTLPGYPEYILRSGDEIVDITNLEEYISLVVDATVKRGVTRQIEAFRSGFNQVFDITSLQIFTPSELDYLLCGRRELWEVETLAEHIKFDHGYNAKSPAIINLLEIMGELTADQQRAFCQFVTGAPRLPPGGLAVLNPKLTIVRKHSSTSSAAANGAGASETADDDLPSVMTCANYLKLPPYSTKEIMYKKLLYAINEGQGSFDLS

These are yes or no findings as the source states them, for the method shown. Binding seen in cells or lysates may run through a third protein. A yes stands for co-enrichment or nearness to the bait. Other partners may have been found.

B1: 5-methyltetrahydropteroyl-triglutamate, homocysteine methyltransferase 2 (MS2) (enzyme, UniProt Q9SRV5 1-765)
chain: MASHIVGYPRMGPKRELKFALESFWDGKSSADDLQKVSADLRSDIWKQMSAAGIKYIPSNTFSHYDQVLDTTAMLGAVPSRYGFTSGEIGLDVYFSMARGNASVPAMEMTKWFDTNYHYIVPELGPEVKFSYASHKAVNEYKEAKALGVETVPVLVGPVSYLLLSKLAKGVDKSFDLLSLLPKILPVYKEVIAELKAAGASWIQLDEPLFVMDLEGHKLQAFSGAYAELESTLSGLNVLVETYFADIPAEAYKTLTSLKGVTAFGFDLVRGTKTIDLIKSGFPQGKYLFAGVVDGRNIWANDLAASLITLQSLEGVVGKDKLVVSTSCSLLHTAVDLINETKLDAEIKSWLAFAAQKVVEVDALAKALAGQTNESFFTANADALSSRRSSPRVTNESVQKAAAALKGSDHRRTTEVSARLDAQQKKLNLPILPTTTIGSFPQTVELRRVRREYKAKKISEEDYVKAIKEEIKKVVDIQEDLDIDVLVHGEPERNDMVEYFGEQLSGFAFTANGWVQSYGSRCVKPPVIYGDVSRPKPMTVFWSSTAQSMTKRPMKGMLTGPVTILNWSFVRNDQPRHETCYQIALAIKDEVEDLEKGGIGVIQIDEAALREGLPLRKAEHSFYLDWAVHSFRITNCGVQDSTQIHTHMCYSNFNDIIHSIIDMDADVITIENSRSDEKLLSVFREGVKYGAGIGPGVYDIHSPRIPSTDEIADRINKMLAVLEQNILWVNPDCGLKTRKYTEVKPALKAMVDAAKLIRSQLGSAK
B2: phosphoenolpyruvate carboxylase 2 (PPC2) (enzyme, UniProt Q5GM68 1-963)
chain: MAARNLEKMASIDAQLRLLAPGKVSEDDKLIEYDALLLDRFLDILQDLHGEDVREFVQECYEVAADYDGNRNTEKLEELGNMLTSLDPGDSIVVTKSFSNMLSLANLAEEVQIAYRRRIKKLKKGDFADEASATTESDIEETLKRLLQLNKTPEEVFDALKNQTVDLVLTAHPTQSVRRSLLQKFGRIRDCLTQLYAKDITPDDKQELDEALQREIQAAFRTDEIRRTPPTPQDEMRAGMSYFHETIWKGVPKFLRRVDTALKNIGINERVPYNAPLIQFSSWMGGDRDGNPRVTPEVTRDVCLLARMMAANLYFSQIEDLMFEMSMWRCNEELRVRAERQRCAKRDAKHYIEFWKQIPANEPYRAILGDVRDKLYNTRERARQLLSSGVSDVPEDAVFTSVDQFLEPLELCYRSLCDCGDRPIADGSLLDFLRQVSTFGLALVKLDIRQESERHSDVLDAITTHLGIGSYKEWSEDKRQEWLLSELSGKRPLFGPDLPKTEEVADVLDTFKVISELPSDSFGAYIISMATAPSDVLAVELLQRECGITDPLRVVPLFEKLADLESAPAAVARLFSIEWYRNRINGKQEVMIGYSDSGKDAGRLSAAWQLYKTQEELVKVAKEYGVKLTMFHGRGGTVGRGGGPTHLAILSQPPDTIHGQLRVTVQGEVIEQSFGEEHLCFRTLQRFTAATLEHGMHPPVSPKPEWRVLMDEMAIIATEEYRSVVFKEPRFVEYFRLATPELEYGRMNIGSRPSKRKPSGGIESLRAIPWIFAWTQTRFHLPVWLGFGGAFKRVIQKDSKNLNMLKEMYNQWPFFRVTIDLVEMVFAKGDPGIAALYDRLLVSEELQPFGEQLRVNYQETRRLLLQVAGHKDILEGDPYLRQRLQLRDPYITTLNVCQAYTLKQIRDPSFHVKVRPHLSKDYMESSPAAELVKLNPKSEYAPGLEDTVILTMKGIAAGMQNTG
B3: UBP26 (enzyme, UniProt Q9SCJ9 1-1067)
chain: MSRPNTRNKNKRQRPDAVDSSSQILRKIHEANDVTDDDINQLFMIWKPVCQGCRVNTRDNPNCFCGLVPPLNGSRKSGLWQKTSEIIQSLGPDPTLDRRDSESTPAGLTNLGATCYANSILQCLYMNTAFREGVFSVEVHVLKQNPVLDQIARLFAQLHASQKSFVDSDAFVKTLELDNGVQQDTHEFLTLLLSLLERCLLHSGVKAKTIVQDLFSGSVSHVTTCSKCGRDSEASSKMEDFYALELNVKGLKSLDASLNDYLSLEQLNGDNQYFCGSCNARVDATRCIKLRTLPPVITFQLKRCIFLPKTTAKKKITSSFSFPQVLDMGSRLAESSQNKLTYDLSAVLIHKGSAVNSGHYVAHIKDEKTGLWWEFDDEHVSELGKRPCNEASSSTPQSESNGTASSGNITDGIQSGSSDCRSAIKSEVFSSSDAYMLMYSLRCDKQENQEGQKENPIDITKGEVKQLKGGYLPKHLSEWINNMNAVFLESCKQYNLRKEKELNALTERRQEVRTILSEAAVQSLEEQYFWISTDWLRLWADTTLPPALDNTPLLCSHGKVHASKVNCMKRISELAWIKLESKFNGGPKLGKGDYCRDCLMDGARMVVSSDSYRDRRTFMKSIANDVLSGKCEDGMYYISRAWLQQWIKRKNLDAPTEADAGPTNAITCNHGELMPEQAPGAKRVVVPENFWSFLFEDALKVMSEDTLDCTCFPVDSSQCCHCTEVLSEVACFEDSLRTLKVKQRQNHEKLATGKGIPLTPQSRYFLLPSPWLVQWRIYINMTGKNSSSAPEPERLDGVINTLKCKKHTRLLERLPELVCRRGSYFQKNPSTDKLTIIPELDWKYFCDEWGGLMENGISAFIEVGNTDQSSSPDVIDLEKDSSPDDNMDVDAQQLILRASPEICEECIGERESCELMQKLSYSEGDVFVCFVRGKEAPKAMLEASDSSFEVDRRTSKRSRRTNYGNLTSLKVSATTTVYQLKMMIWELLGVMKENQELHKGSKVIDQESATLADMNIFPGDRLWVRDTEMHEHRDIADELCEKKPGAQDIEEGFRGTLLTGNISSEAC
B4: LOS1 (protein, UniProt Q9ASR1 1-843)
chain: MVKFTADELRRIMDYKHNIRNMSVIAHVDHGKSTLTDSLVAAAGIIAQEVAGDVRMTDTRADEAERGITIKSTGISLYYEMTDESLKSFTGARDGNEYLINLIDSPGHVDFSSEVTAALRITDGALVVVDCIEGVCVQTETVLRQALGERIRPVLTVNKMDRCFLELQVDGEEAYQTFSRVIENANVIMATYEDPLLGDVQVYPEKGTVAFSAGLHGWAFTLTNFAKMYASKFGVVESKMMERLWGENFFDPATRKWSGKNTGSPTCKRGFVQFCYEPIKQIIATCMNDQKDKLWPMLAKLGVSMKNDEKELMGKPLMKRVMQTWLPASTALLEMMIFHLPSPHTAQRYRVENLYEGPLDDQYANAIRNCDPNGPLMLYVSKMIPASDKGRFFAFGRVFAGKVSTGMKVRIMGPNYIPGEKKDLYTKSVQRTVIWMGKRQETVEDVPCGNTVAMVGLDQFITKNATLTNEKEVDAHPIRAMKFSVSPVVRVAVQCKVASDLPKLVEGLKRLAKSDPMVVCTMEESGEHIVAGAGELHLEICLKDLQDDFMGGAEIIKSDPVVSFRETVCDRSTRTVMSKSPNKHNRLYMEARPMEEGLAEAIDDGRIGPRDDPKIRSKILAEEFGWDKDLAKKIWAFGPETTGPNMVVDMCKGVQYLNEIKDSVVAGFQWASKEGPLAEENMRGICFEVCDVVLHSDAIHRGGGQVIPTARRVIYASQITAKPRLLEPVYMVEIQAPEGALGGIYSVLNQKRGHVFEEMQRPGTPLYNIKAYLPVVESFGFSSQLRAATSGQAFPQCVFDHWEMMSSDPLEPGTQASVLVADIRKRKGLKEAMTPLSEFEDKL

The target of this assay is UPL3-GFP (A. thaliana) (UniProt Q6WWW4). Put plainly: affinity purification with mass spectrometry; GFP nanotrap (GBP beads) on lysate of rosette leaves of 6-wk-old ACTIN3:UPL3-GFP plants; IP buffer 50 mM Tris-HCl pH 7.4, 150 mM NaCl, 1 mM EDTA, 1% Nonidet P-40, 10% glycerol; 4°C, 2 h; hits of ACTIN3:GFP control plants subtracted.
As for B1, the binding result is recorded as “binds”. Next, B2: “binds”; B3: “binds”. As for B4, the entry is “binds”.
